Assay results: PubChem BioAssay AID504648 (National Center for Advancing Translational Sciences (NCATS), 2011)
Hit rate of the full screen: of about 390,000 compounds, about 610 (0.16%) were called active. Inconclusive means that the source gave no clear call. Such entries were picked first, then a sample of the others. The call rests on the fitted dose curve; in most records, active means well fitted inhibition curve with a large enough effect; inconclusive means small, poorly fitted or top-dose-only effect, or effect the other way, or another doubt; inactive means no such curve, though single readings can be large or run the other way. Where the call is inconclusive, the potency comes from a doubtful curve fit.

Assay: Nrf2 qHTS screen for inhibitors: counterscreen for cytotoxicity
Settings: A549 ARE-Fluc cells, CellTiter-Fluor viability, 18-24 h; activity change, negative = cytotoxicity: at 46 µM (top of the series)
How it was run: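 A549 ARE-Fluc cells in 5% FBS OPTI-MEM, 5000 cells/well, rested 2 h then exposed to compounds in concentration-response for 18-24 h at 37 °C. Viability by CellTiter-Fluor fluorescence (Ex 405/Em 525) after 30 min; luciferase luminescence (BugLite, 15 min, RT) read afterwards.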
On the % scale 0 is the no-effect control and ±100 the full control effect; potency means the concentration at half of the fitted maximal effect.

| SMILES | Potency | activity change, negative = cytotoxicity |
| --- | --- | --- |
| CC(C)(C)NC(=O)CN(C(=O)Cn1nnc(-c2ccc(Cl)cc2)n1)C1CCN(Cc2ccccc2)CC1 | inconclusive: 29.1 µM [falling, single point] |  |
| O=C(Nc1ccc(C(F)(F)F)cc1)N1CCN(c2ccnc3cc(Cl)ccc23)CC1 | inconclusive: 29.1 µM [falling, single point] |  |
| Cc1cc(C(=O)N2CCN(c3cccc(Cl)c3)CC2)c(C)o1 | inconclusive: 4.11 µM [falling, partial curve, poor fit] |  |
| COc1ccc(NC(=O)N(CCc2ccccc2)Cc2cc3c(C)cc(C)cc3[nH]c2=O)cc1 | inconclusive: 23.1 µM [falling, partial curve, poor fit] |  |
| O=C1C2=C(Nc3ccccc3SC2c2ccco2)c2ccccc21 (stereo not drawn) | inconclusive: 18.4 µM [falling, partial curve, poor fit] |  |
| C#CC[N+](C)(C)CCCCCCCC | inconclusive: 32.6 µM [falling, partial curve, poor fit] |  |
| COc1cccc(/C=N/NC(=O)c2cc3cc([N+](=O)[O-])ccc3s2)c1O | inconclusive: 18.4 µM [falling, single point] |  |
| COCCn1nnnc1C(c1cc2ccc(OC)cc2[nH]c1=O)N1CCN(C2CCCCC2)CC1 (stereo not drawn) | inconclusive: 18.4 µM [falling, partial curve, poor fit] |  |
| CCOc1ccc2[nH]c(=O)c(CN(Cc3cccs3)C(CC)c3nnnn3C(C)(C)CC)cc2c1 (stereo not drawn) | inconclusive: 23.1 µM [falling, partial curve, poor fit] |  |
| Cn1cc(S(=O)(=O)N2CCCCC2)cc1C(=O)Nc1cccc(C#N)c1 |  | inactive: -3.05% |
| O=S(=O)(Nc1nc2ccccc2nc1N1CCN(c2ccccc2)CC1)c1ccc(F)cc1 | inconclusive: 18.4 µM [falling, partial curve, poor fit] |  |
| CCCC[C@@H]1C=C(C(=O)O)[C@H](c2ccc(Cl)c(Cl)c2)N1S(=O)(=O)c1ccc(C)cc1 |  | inactive: 5.08% |
| O=C(C1CCC(CNc2nc(=S)[nH]c3ccccc23)CC1)N1CCN(c2ccccn2)CC1 (stereo not drawn) | inconclusive: 16.4 µM [falling, partial curve, poor fit] |  |
| COc1cccc(N2CC(NC(=O)/C=C\c3ccc(OC)c(OC)c3)CC2=O)c1 (stereo not drawn) |  | inactive: 9.69% |
| CC(O)CNc1ccc(-c2n[nH]c(=O)c3ccccc23)cc1[N+](=O)[O-] (stereo not drawn) | inconclusive: 18.4 µM [falling, partial curve, poor fit] |  |
| O=[N+]([O-])c1cccc(-c2ccc(/C=N/Nc3nc(N4CCCCC4)nc(N4CCCCC4)n3)o2)c1 | inconclusive: 29.1 µM [falling, partial curve, poor fit] |  |
| CN1CCc2c(sc3nc(SCC(=O)N4CCOCC4)nc(N)c23)C1 |  | inactive: 1.69% |
| CCOC(=O)c1[nH]c2cc3c(cc2c1NC(=O)CN1CCc2ccccc2C1)OCO3 | inconclusive: 18.4 µM [falling, partial curve, poor fit] |  |
| O=C(Cc1ccc(F)cc1)NCCc1ccc(F)cc1 |  | inactive: -0.703% |
| O=C(c1ccco1)N1CCN(C(c2ccccn2)c2nnnn2C2CCCC2)CC1 (stereo not drawn) | inconclusive: 20.6 µM [activator, partial curve, poor fit] |  |
| CCOC(=O)c1c(NC(=O)CN2CCN(c3cccc(Cl)c3)CC2)sc(C)c1C |  | inactive: -1.83% |

| SMILES | Potency | activity change, negative = cytotoxicity |
| --- | --- | --- |
| Cc1cccn2c(=O)c(/C=C(\C#N)C(=O)NCc3ccco3)c(N3CCCCCC3)nc12 | inconclusive: 29.1 µM [falling, single point] |  |
| CC(C)(C)C1CCC2(CC1)C(C#N)=C(SCC(=O)Nc1ccccc1)NC(=O)C2C#N (stereo not drawn) | inconclusive: 16.4 µM [falling, single point] |  |
| CCCOc1ccc(C2C(C(=O)OC)=CN(CCOC)C=C2C(=O)OC)cc1 | inconclusive: 9.2 µM [activator, partial curve, poor fit] |  |
| CC(=O)Nc1ccc(NC(=O)CCS(=O)(=O)c2ccc3c(c2)CC(=O)N3C)cc1 |  | inactive: -0.717% |
| Cc1ccccc1N(C(=O)c1cccs1)c1nc2ccccc2s1 |  | inactive: 12.4% |
| Cc1ccsc1/C=N/Nc1ncc(Cl)cc1Cl | inconclusive: 16.4 µM [falling, partial curve, poor fit] |  |
| CC1=Nc2cc(C(=O)NCCc3ccc(Cl)cc3)ccc2Sc2c(C)ccc(C)c21 | inconclusive: 0.92 µM [falling, full curve] |  |
| COc1ccc(CCn2c(-n3nc(C)cc3C)nc3c2c(=O)[nH]c(=O)n3C)cc1 | inconclusive: 4.61 µM [falling, single point] |  |
| COc1cccc(-c2cc(C(F)(F)F)nc(NCc3ccco3)n2)c1 | inconclusive: 29.1 µM [falling, single point] |  |
| O=C(COC(=O)CCC(=O)c1ccc(F)cc1)Nc1cccc(S(=O)(=O)N2CCOCC2)c1 |  | inactive: -1.54% |
| COc1cc(OC)cc(C(=O)N[C@H](C(=O)OCc2cc(=O)oc3cc(C)ccc23)C(C)C)c1 |  | inactive: -5.07% |
| c1nc(NCc2ccc3c(c2)OCO3)c2cc(-c3ccc4c(c3)OCCO4)ccc2n1 |  | inactive: 2.42% |
| CC1(C)Cc2c(sc(NC(=O)c3ccco3)c2C(=O)O)CO1 |  | inactive: -16.3% |
| COc1cccc(C(=O)Nc2cccc(C(=O)OCc3cc(=O)n4c(C)csc4n3)c2)c1 |  | inactive: 0.24% |
| Cn1c(Oc2ccc(Cl)cc2)nc2c1c(=O)n(Cc1ccc(F)cc1)c(=O)n2C |  | inactive: -2.75% |
| NS(=O)(=O)c1cccc(NC(=O)CSc2nc3ccccc3c(=O)n2Cc2ccco2)c1 | inconclusive: 18.4 µM [falling, single point] |  |
| Cc1ccccc1NC(=O)CSc1nc2cc3c(cc2cc1C)CCC3 | inconclusive: 2.91 µM [falling, partial curve, poor fit] |  |
| N#Cc1ccc(CNc2cnccn2)cc1 | inconclusive: 0.251 µM [activator, full curve, poor fit] |  |
| COc1ccc(Cn2c(=O)sc3ccccc3c2=O)cc1 | inconclusive: 9.2 µM [activator, partial curve, poor fit] |  |
| Cc1ccc(OCCCSc2nc(-c3ccc(C(C)(C)C)cc3)nc3cc(=O)[nH]n23)cc1C | inconclusive: 29.1 µM [falling, single point] |  |
| COc1ccc(C(=O)COC(=O)C(CC(C)C)N2C(=O)c3ccccc3C2=O)cc1 (stereo not drawn) |  | inactive: -15.9% |

In the list so far, these have a COOH group.

| SMILES | Potency | activity change, negative = cytotoxicity |
| --- | --- | --- |
| CCCC[C@@H]1C=C(C(=O)O)[C@H](c2ccc(Cl)c(Cl)c2)N1S(=O)(=O)c1ccc(C)cc1 |  | inactive: 5.08% |
| CC1(C)Cc2c(sc(NC(=O)c3ccco3)c2C(=O)O)CO1 |  | inactive: -16.3% |

(continued)

| SMILES | Potency | activity change, negative = cytotoxicity |
| --- | --- | --- |
| COc1ccc(OC)c(NC(=O)Cc2c(C)n(C(=O)c3ccc(Cl)cc3)c3ccc(OC)cc23)c1 |  | inactive: -12.3% |
| COc1cc(NC(=O)CCCNC(=O)c2ccc(Cl)cc2)cc(OC)c1 | inconclusive: 20.6 µM [activator, partial curve, poor fit] |  |
| Cc1ccc(C(C)C)c(OCCN)c1 | inconclusive: 23.1 µM [activator, partial curve, poor fit] |  |
| CC1=C(C(=O)OCc2ccccc2)C(c2cccs2)N2C(=O)CCSC2=N1 (stereo not drawn) | inconclusive: 29.1 µM [falling, single point] |  |
| CC1CCC(C(C)C)C(OC(=O)Cn2c(-c3ccc(Cl)cc3)[n+](C)c3ccccc32)C1 (stereo not drawn) | inconclusive: 23.1 µM [falling, single point] |  |
| C=C1CN(C(C(=O)OC)C(C)C)S(=O)(=O)c2ccc(F)cc21 (stereo not drawn) |  | inactive: -2.66% |
| O=Nc1c(O)n(Cc2cccc(Cl)c2)c2ccccc12 | inconclusive: 23.1 µM [falling, single point] |  |
| O=C(C[C@H]1C[C@H](C(=O)N2CCOCC2)[C@@]2(CCC3CCCC3)c3[nH]c4cc(-c5ccco5)ccc4c3CCN2C1=O)NCCC1=CCCCC1 | inconclusive: 16.4 µM [falling, partial curve, poor fit] |  |
| CSc1sc(-c2ccnc(SCCS(C)(=O)=O)n2)c(-c2ccccc2)c1C#N |  | inactive: 1.74% |
| CCCC(C(=O)NC1CCCC1)N(C(=O)c1snc(C(N)=O)c1N)c1ccc(OCC)cc1 (stereo not drawn) | inconclusive: 23.1 µM [falling, partial curve, poor fit] |  |
| C=CCn1c(COc2ccc3c(c2)CCCC3)nnc1SCC(=O)Nc1cccc(SC)c1 | inconclusive: 18.4 µM [falling, single point] |  |
| Cc1ccc(-n2nc3c(N4CCC(C(=O)NCCc5ccccc5C)CC4)nnc(C)c3c2C)cc1 | inconclusive: 25.9 µM [falling, single point] |  |
| CC(C)C(NC(=O)CNC(=O)OC(C)(C)C)C(=O)NCc1ccccc1 (stereo not drawn) | inconclusive: 29.1 µM [falling, partial curve, poor fit] |  |
| O=C(Nc1ccccc1C(=O)Nc1nnc(C(F)(F)F)s1)c1ccccc1Cl | active: 16.4 µM |  |
| Cc1cnc(NC(=O)C2CC=CCC2)s1 (stereo not drawn) |  | inactive: 1.89% |
| CCOC(=O)c1sc(N2C(=O)C(O)=C(C(=O)c3ccc(C)o3)C2c2ccc(OC)c(OC)c2)nc1C (stereo not drawn) | inconclusive: 23.1 µM [falling, partial curve, poor fit] |  |
| CCN(CC)c1ccc(/C=N/NC(=O)c2cnccn2)cc1 | inconclusive: 18.4 µM [falling, single point] |  |
| CC(C)(C)c1cc(C(C)(C)C)c2oc(=O)c(-c3nc4ccc(C(=O)O)cc4[nH]3)cc2c1 | inconclusive: 29.1 µM [activator, single point] |  |
| Cc1cc(-n2cnnn2)cc(C)c1S(=O)(=O)NCCOc1ccccc1 |  | inactive: -4.24% |
| CCOC(=O)N1CCN(C(=O)c2ccccc2-c2ccccc2)CC1 | inconclusive: 25.9 µM [falling, partial curve, poor fit] |  |
| O=C1NC[C@H](Cc2ccccc2)N(C[C@H]2CCCN2C[C@H](Cc2ccccc2)N2C[C@H](Cc3ccccc3)N(CC3CCCCC3)C(=O)C2=O)C1=O | inconclusive: 29.1 µM [falling, single point] |  |

Given tab-delimited: two of the compounds above
SMILES	Potency	activity change, negative = cytotoxicity
CSc1sc(-c2ccnc(SCCS(C)(=O)=O)n2)c(-c2ccccc2)c1C#N		inactive: 1.74%
Cc1cc(-n2cnnn2)cc(C)c1S(=O)(=O)NCCOc1ccccc1		inactive: -4.24%
